Measurements from the supplement of paper PMC8728848.
The list shows a part of the results.

Assays:
Test in all cases: glycan array binding signal (z-score within array); higher = stronger binding
Conditions in all cases: glycan notation: IUPAC condensed, linker removed
[1] = molecular target: Fuc(a1-2)Gal(b1-4)GlcNAc(b1-3)Gal(b1-4)GlcNAc(b1-3)Gal(b1-4)GlcNAc
In short: (§1)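 From the Consortium for Functional Glycomics database, 3228 arrays were curated, keeping only those whose protein sequence was available. Binding is given as a within-array Z-score averaged across arrays sharing a protein sequence and across linkers. Negative Z-scores can be read as non-binding.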

[2] = molecular target: Fuc(a1-2)Gal(b1-4)GlcNAc(b1-3)GalNAc
In short: as §1

[3] = molecular target: Fuc(a1-2)Gal(b1-4)GlcNAc(b1-3)[Fuc(a1-2)Gal(b1-4)GlcNAc(b1-6)]GalNAc
In short: as §1

[4] = molecular target: Fuc(a1-2)Gal(b1-4)GlcNAc(b1-3)[Fuc(a1-3)[Gal(b1-4)]GlcNAc(b1-6)]Gal(b1-4)Glc
In short: as §1

[5] = molecular target: Fuc(a1-2)Gal(b1-4)GlcNAc(b1-6)GalNAc
In short: as §1

[6] = molecular target: Fuc(a1-2)Gal(b1-4)GlcNAc6S
In short: as §1

[7] = molecular target: Fuc(a1-2)Gal(b1-4)[Fuc(a1-3)]GlcNAc
In short: as §1

[8] = molecular target: Fuc(a1-2)Gal(b1-4)[Fuc(a1-3)]GlcNAc(b1-2)Man(a1-3)[Fuc(a1-2)Gal(b1-4)[Fuc(a1-3)]GlcNAc(b1-2)Man(a1-6)]Man(b1-4)GlcNAc(b1-4)[Fuc(a1-6)]GlcNAc
In short: as §1

[9] = molecular target: Fuc(a1-2)Gal(b1-4)[Fuc(a1-3)]GlcNAc(b1-2)[Fuc(a1-2)Gal(b1-4)[Fuc(a1-3)]GlcNAc(b1-4)]Man(a1-3)[Fuc(a1-2)Gal(b1-4)[Fuc(a1-3)]GlcNAc(b1-2)Man(a1-6)]Man(b1-4)GlcNAc(b1-4)GlcNAc
In short: as §1

[10] = molecular target: Fuc(a1-2)Gal(b1-4)[Fuc(a1-3)]GlcNAc(b1-3)Gal(b1-4)[Fuc(a1-3)]GlcNAc
In short: as §1

[11] = molecular target: Fuc(a1-2)Gal(b1-4)[Fuc(a1-3)]GlcNAc(b1-3)Gal(b1-4)[Fuc(a1-3)]GlcNAc(b1-3)Gal(b1-4)[Fuc(a1-3)]GlcNAc
In short: as §1

[12] = molecular target: Fuc(a1-2)Gal(b1-4)[Fuc(a1-3)]GlcNAc(b1-3)GalNAc
In short: as §1

[13] = molecular target: Fuc(a1-2)Gal(b1-4)[Fuc(a1-3)]GlcNAc(b1-3)[Neu5Ac(a2-6)Gal(b1-4)GlcNAc(b1-6)]Gal(b1-4)Glc
In short: as §1

[14] = molecular target: Fuc(a1-2)Gal3S(b1-4)GlcNAc
In short: as §1

[15] = molecular target: Fuc(a1-2)Gal6S(b1-3)GlcNAc
In short: as §1

[16] = molecular target: Fuc(a1-2)Gal6S(b1-3)GlcNAc6S
In short: as §1

Fuc(a1-2)Gal6S(b1-4)Glc = molecular target: Fuc(a1-2)Gal6S(b1-4)Glc
In short: as §1

[17] = molecular target: Fuc(a1-2)Gal6S(b1-4)Glc6S
In short: as §1

Fuc(a1-2)[Gal(a1-3)]Gal = molecular target: Fuc(a1-2)[Gal(a1-3)]Gal
In short: as §1

[18] = molecular target: Fuc(a1-2)[Gal(a1-3)]Gal(b1-3)GalNAc
In short: as §1

[19] = molecular target: Fuc(a1-2)[Gal(a1-3)]Gal(b1-3)GalNAc(b1-3)Gal(a1-4)Gal(b1-4)Glc
In short: as §1

[20] = molecular target: Fuc(a1-2)[Gal(a1-3)]Gal(b1-3)GlcNAc
In short: as §1

[21] = molecular target: Fuc(a1-2)[Gal(a1-3)]Gal(b1-3)GlcNAc(b1-2)Man(a1-3)[Fuc(a1-2)[Gal(a1-3)]Gal(b1-3)GlcNAc(b1-2)Man(a1-6)]Man(b1-4)GlcNAc(b1-4)GlcNAc
In short: as §1

[22] = molecular target: Fuc(a1-2)[Gal(a1-3)]Gal(b1-3)GlcNAc(b1-2)Man(a1-3)[Fuc(a1-2)[Gal(a1-3)]Gal(b1-3)GlcNAc(b1-2)Man(a1-6)]Man(b1-4)GlcNAc(b1-4)[Fuc(a1-6)]GlcNAc
In short: as §1

[23] = molecular target: Fuc(a1-2)[Gal(a1-3)]Gal(b1-3)GlcNAc(b1-3)GalNAc
In short: as §1

[24] = molecular target: Fuc(a1-2)[Gal(a1-3)]Gal(b1-3)GlcNAc(b1-6)GalNAc
In short: as §1

[25] = molecular target: Fuc(a1-2)[Gal(a1-3)]Gal(b1-4)Glc
In short: as §1

[26] = molecular target: Fuc(a1-2)[Gal(a1-3)]Gal(b1-4)GlcNAc
In short: as §1

[27] = molecular target: Fuc(a1-2)[Gal(a1-3)]Gal(b1-4)GlcNAc(b1-2)Man
In short: as §1

[28] = molecular target: Fuc(a1-2)[Gal(a1-3)]Gal(b1-4)GlcNAc(b1-2)Man(a1-3)[Fuc(a1-2)[Gal(a1-3)]Gal(b1-4)GlcNAc(b1-2)Man(a1-6)]Man(b1-4)GlcNAc(b1-4)GlcNAc
In short: as §1

B1: PX9961W-pdi-543-27-543 (Parabacteroides distasonis) (protein)
chain: EGNATTTSYFLNDQQAIDAIDGLYERFHQEGCYGRELFWEQGAACDIVWGRTRGYNSLATLAYTGDESPLRDVFSRMYSTMSRANWIIQELVKKEKGTTLTAVEKRSLGEAYFSRGWAHYLIAYRYGTDKQGVPFVRYEDFPDDYDNSIPPQQATVMDNYKLIIEDMDKAIAYLPIFESYDADNRGRAHQAAAVAFKAKTYAYWATWDATQWNNVIEMVNQLENNYNRDLAPTFAELFSSDLKDYWNAEYLWTIPSIGGALPGGTEFPGIILENKGWGKYNGWGQMKPSYDIYEEMAKDGKGNDRLVRSILEYNQEFPFFGETRKFWSTSDLEAGFMINKYMDAFKYSDPVGEGAVSANGDWPTVRVNFPIIRFAEMLLFRAEAYLMTGQADKATADINRIRLRSNLTPLTGTATMKDLYHERRCELAFEFTDHLFDLKRWNRSSNADIKTLADKELNAHPRIRRYEDRANPESAFTIIGYEDYTNKNAYQAHMMVFPYPSEEITKSNGQLKQNEGY
glycan array binding signal (z-score) [1]: -1.31 | glycan array binding signal (z-score) [2]: 0.382 | glycan array binding signal (z-score) [3]: -1 | glycan array binding signal (z-score) [4]: -0.163 | glycan array binding signal (z-score) [5]: -0.257 | glycan array binding signal (z-score) [6]: -0.554 | glycan array binding signal (z-score) [7]: -0.287 | glycan array binding signal (z-score) [8]: 1.66 | glycan array binding signal (z-score) [9]: 0.295 | glycan array binding signal (z-score) [10]: 0.041 | glycan array binding signal (z-score) [11]: 0.317 | glycan array binding signal (z-score) [12]: 0.942 | glycan array binding signal (z-score) [13]: -0.745 | glycan array binding signal (z-score) [14]: -1 | glycan array binding signal (z-score) [15]: -0.032 | glycan array binding signal (z-score) [16]: 1.04 | glycan array binding signal (z-score) (Fuc(a1-2)Gal6S(b1-4)Glc): -0.779 | glycan array binding signal (z-score) [17]: -0.138 | glycan array binding signal (z-score) (Fuc(a1-2)[Gal(a1-3)]Gal): 0.005 | glycan array binding signal (z-score) [18]: -1.22 | glycan array binding signal (z-score) [19]: -0.488 | glycan array binding signal (z-score) [20]: -0.146 | glycan array binding signal (z-score) [21]: -0.55 | glycan array binding signal (z-score) [22]: -0.897 | glycan array binding signal (z-score) [23]: -0.199 | glycan array binding signal (z-score) [24]: 0.085 | glycan array binding signal (z-score) [25]: 0.924 | glycan array binding signal (z-score) [26]: -0.405 | glycan array binding signal (z-score) [27]: -0.316 | glycan array binding signal (z-score) [28]: -0.929
